Results are given in words; binding and its absence hold for the method and conditions named. Some binding calls cover weakened binding; strength is not graded here.
Tests used:
[1] = target: T1, recombinant Nitric oxide synthase interacting protein (NOSIP) (Homo sapiens (Human)) (UniProt Q9Y314); assay: ITC; the same paragraph also says the SPR titration shows a dose dependent interaction between NOSIP and iNOS peptide 2
T1 sequence: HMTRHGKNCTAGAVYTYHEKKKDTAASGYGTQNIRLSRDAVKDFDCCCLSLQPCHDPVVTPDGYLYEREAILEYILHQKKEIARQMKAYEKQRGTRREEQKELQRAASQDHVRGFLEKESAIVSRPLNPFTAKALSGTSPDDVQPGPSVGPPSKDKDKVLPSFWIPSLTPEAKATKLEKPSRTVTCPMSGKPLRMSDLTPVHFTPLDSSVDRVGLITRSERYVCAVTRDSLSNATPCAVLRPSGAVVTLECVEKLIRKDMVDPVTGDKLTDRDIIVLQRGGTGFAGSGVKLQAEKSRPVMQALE

[2] = target: T1, recombinant Nitric oxide synthase interacting protein (NOSIP) (Homo sapiens (Human)); assay: ITC at 25 C, rNOSIP in the syringe titrated into iNOS peptide PP2 in the cell

- binding [1]: binds
- binding [2]: binds
B1: iNOS Peptide-2 (18 mer iNOS peptide) (peptide)
peptide: NQYYGSFKEAKIEEHLAR
notes: 18-residue iNOS-derived peptide, synthesized commercially by China peptides; also called PP2; PP-2
